# Experimental data published in publication PMC12218279.
# Chains of the proteins cited; added tags and fusions are not shown.
# UniProt O77380: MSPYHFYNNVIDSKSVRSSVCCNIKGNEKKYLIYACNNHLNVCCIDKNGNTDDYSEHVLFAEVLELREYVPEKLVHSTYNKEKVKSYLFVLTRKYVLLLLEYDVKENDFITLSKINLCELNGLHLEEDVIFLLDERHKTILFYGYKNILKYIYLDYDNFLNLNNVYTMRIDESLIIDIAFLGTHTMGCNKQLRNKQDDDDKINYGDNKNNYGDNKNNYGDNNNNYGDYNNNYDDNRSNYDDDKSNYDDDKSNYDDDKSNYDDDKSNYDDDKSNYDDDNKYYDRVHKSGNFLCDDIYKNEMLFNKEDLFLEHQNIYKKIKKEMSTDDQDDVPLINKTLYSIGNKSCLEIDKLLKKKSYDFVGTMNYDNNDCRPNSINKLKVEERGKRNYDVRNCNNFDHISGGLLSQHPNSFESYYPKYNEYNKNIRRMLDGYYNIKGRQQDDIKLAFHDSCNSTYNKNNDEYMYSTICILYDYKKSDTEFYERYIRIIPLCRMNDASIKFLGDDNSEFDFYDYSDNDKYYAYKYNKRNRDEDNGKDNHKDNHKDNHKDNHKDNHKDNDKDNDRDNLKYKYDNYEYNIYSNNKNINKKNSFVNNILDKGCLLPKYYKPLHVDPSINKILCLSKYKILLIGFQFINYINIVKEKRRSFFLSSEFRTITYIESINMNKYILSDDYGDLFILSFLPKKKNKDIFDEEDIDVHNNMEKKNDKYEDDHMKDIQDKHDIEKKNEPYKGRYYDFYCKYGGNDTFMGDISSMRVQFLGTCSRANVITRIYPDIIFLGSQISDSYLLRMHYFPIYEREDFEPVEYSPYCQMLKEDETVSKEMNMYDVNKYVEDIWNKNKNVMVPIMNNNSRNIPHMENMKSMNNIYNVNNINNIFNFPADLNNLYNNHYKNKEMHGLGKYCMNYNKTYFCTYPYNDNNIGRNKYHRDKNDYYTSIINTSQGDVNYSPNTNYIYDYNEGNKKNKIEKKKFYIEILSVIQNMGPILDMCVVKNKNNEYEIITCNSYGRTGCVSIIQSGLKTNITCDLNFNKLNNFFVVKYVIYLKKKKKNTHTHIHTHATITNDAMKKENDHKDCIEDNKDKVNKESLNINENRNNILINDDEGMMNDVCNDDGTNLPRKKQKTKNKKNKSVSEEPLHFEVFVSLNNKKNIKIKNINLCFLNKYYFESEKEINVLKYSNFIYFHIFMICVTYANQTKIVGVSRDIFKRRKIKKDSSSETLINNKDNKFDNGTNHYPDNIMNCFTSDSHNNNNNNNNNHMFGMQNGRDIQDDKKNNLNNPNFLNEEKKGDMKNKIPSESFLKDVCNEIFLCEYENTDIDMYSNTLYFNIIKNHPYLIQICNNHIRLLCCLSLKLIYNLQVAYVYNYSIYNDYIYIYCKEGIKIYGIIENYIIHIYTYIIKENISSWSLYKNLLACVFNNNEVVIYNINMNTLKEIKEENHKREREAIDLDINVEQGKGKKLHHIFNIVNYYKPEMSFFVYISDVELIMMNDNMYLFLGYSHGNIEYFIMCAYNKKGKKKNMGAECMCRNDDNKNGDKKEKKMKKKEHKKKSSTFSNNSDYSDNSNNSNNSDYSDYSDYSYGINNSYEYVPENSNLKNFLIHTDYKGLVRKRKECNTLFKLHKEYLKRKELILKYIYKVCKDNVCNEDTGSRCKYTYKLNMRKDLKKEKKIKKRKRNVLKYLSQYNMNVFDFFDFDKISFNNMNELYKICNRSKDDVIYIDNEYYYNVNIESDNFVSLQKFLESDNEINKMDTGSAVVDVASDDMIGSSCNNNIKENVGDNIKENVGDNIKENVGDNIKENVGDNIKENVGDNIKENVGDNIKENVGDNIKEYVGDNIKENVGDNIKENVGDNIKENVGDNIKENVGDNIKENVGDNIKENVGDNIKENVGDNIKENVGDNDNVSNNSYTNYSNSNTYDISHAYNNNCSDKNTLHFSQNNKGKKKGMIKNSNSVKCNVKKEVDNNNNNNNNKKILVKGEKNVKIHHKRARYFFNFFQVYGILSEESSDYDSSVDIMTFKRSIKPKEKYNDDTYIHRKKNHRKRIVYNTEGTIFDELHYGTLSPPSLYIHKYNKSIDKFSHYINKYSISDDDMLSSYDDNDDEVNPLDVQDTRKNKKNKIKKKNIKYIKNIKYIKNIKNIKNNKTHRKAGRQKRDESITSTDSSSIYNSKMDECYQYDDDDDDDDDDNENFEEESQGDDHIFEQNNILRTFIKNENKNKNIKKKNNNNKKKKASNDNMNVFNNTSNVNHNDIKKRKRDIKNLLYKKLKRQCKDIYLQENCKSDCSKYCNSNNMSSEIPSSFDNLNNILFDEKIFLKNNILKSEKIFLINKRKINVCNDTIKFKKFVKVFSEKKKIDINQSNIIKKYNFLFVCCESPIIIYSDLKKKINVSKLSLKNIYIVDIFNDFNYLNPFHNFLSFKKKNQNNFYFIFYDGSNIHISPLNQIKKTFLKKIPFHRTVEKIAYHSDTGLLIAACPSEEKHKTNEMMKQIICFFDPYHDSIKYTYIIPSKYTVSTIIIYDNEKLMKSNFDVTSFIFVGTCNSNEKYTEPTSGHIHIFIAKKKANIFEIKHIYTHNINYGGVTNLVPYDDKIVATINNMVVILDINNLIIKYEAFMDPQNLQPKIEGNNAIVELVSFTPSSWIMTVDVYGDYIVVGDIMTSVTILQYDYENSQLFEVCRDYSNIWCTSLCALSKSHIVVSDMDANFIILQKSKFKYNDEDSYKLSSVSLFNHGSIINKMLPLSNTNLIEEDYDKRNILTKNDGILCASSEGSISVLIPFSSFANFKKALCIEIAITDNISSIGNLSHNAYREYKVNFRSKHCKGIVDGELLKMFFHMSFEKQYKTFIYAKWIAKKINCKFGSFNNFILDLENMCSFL
# These are yes or no findings as the source states them, for the method shown. Binding seen in cells or lysates may run through a third protein. Here binding means that the protein was enriched with, or labelled near, the bait; the list need not be complete. Where a sequence is shown, tags or fusion partners need not be part of it.
# B1: PfFBOX06 (protein, UniProt C6KSY8 1-604)
# chain: MGKSNIFRRIHQNNTFNMKMNKKHHIDNECIFNNCTPLSTPRSISYIMNSNECYDYKTNKIEYISCLKFCPKQYNNIFKNSDIICNILSFLSFSERWKFRLLNKSFYQAFHTKYAWANIDFRFLNVDLFNFIKKYNKLFLNTFSLSMSINGDQSVEMIINFIFKHFNKLKDLRLYFRKKNANFIYESVHPIVSNLLNCKYLKNNNNNNNRNRKEMHKRKKKNSLYQKKQALTTTNNNNNNNNNDNNNDDNNNNNNGNHINCTHANHNNNYGNNYNECNDSNEHCREKENLQTSNFSPDIHIGQENSPNISRHAKKKKKNKQIDTSPTKKEKNIEHIHNTYNSYLDSVNHYNDIHNNLRDDNFDNIENSSSSTHSSSEKQCTPFSYEHMDCNFELNDYFLQNNHYQKYLQKKNKEKKNEIVEKYLHIIQSKKIWASKRLNISNNFQYLERLIIDVELKGEELLCFVGKLNNLKDIIISKLVYSNKLNRSQSIIIFTSFIEKMKRNNIRLIQLGLYFRMEHKPIDYLNNEKFRKILSERKEYVYDINKEEGDELIYILQKNHLNSLYCLWSNDLFISFEMYEQIKKFNNLKIWILPGWRALSLAKQ
# B2: leucine rich repeat protein PF3D7_1123300 (protein, UniProt Q8IID0 1-689)
# chain: MANDLGEISNKQKGYMENNEKNSEKNNEINNEVTYKIINEIKNDTVRNNMVKEGNKNINKKHNESNVNIVGNKKYESDINMKNKSDEEKCKAFFKHEPCLKNVLRNIFLKSKSNKCYDDDNNNDDNNNDDNNNDDNNNDDNNNDDNNSSNNNNDDNNNDDNNSSNNNNDDNNNDDNNSSNNNNDDDFYTCTNTSIDKEINNNNVKNKKQKECINNEEKIPSEVECAICMKLLIVPVTIPCGHNFCRDCIEKAKEYKNLCPLCRSNMGDKKNINLLLGELIKQKYPLTYSKRLEEIENLKLEQEKKVIKERINAINNSSIIPIFKAPLIFGPYFPGEVFDINIYNKRFIDLIYFISNEGTFAITSSKEKNDEKKLYGIHVKILEQKKSNQVFYLKCVANFRVLLYNITLFTDYGNFVGLHSPLFDENISINFLTSHIINNTTVHTDSTNITYGNYNNEQDVGLSNNTNIGGKEKIGDLKKLLYQIEVEEDINLISYYYEQYKNITNMGELIDNNNDNNNNNDDNNNDDNNNNNNNSNNNSNNNNNNNNITNIVKYHCCIILSKICLLCIKNQLNRFGSAGVMLFNTKFRNIKLTSSEPSKEELEKFSYSLSCAIISRSVLKWKWFKITDTYERLESITQYFLKKKNKSILALDNSRSPLIHRFFMLDSISSSLIILVFFLIIICIKYFIY
# B3: PfMCM2 (protein, UniProt Q8ILR7 1-971)
# chain: MEDKKKLEEDLESNKYDIDEEDLLEDEGRLNEEERQAELEGESLFEEDEGFIFGADDEKKEMQKLRNLGLDNDDYDDDFIDDELDYEDNLKARRAAERHMQMQRKQEGKYEKNKFWKTLEDQLEGDDEEEDIFDKVAEKVAKRRENLHLTAEETDIPDLSNLESAKICLSVNPKDVVFDERYQQAADTCFRYFLHKFSLKDSMGLNIDESNTELHEEEHMNSSHQYYIDKIEKMILNDKHTLIVSAKHLIQFHCENLVQWIEFKPEQILEVLHECLMVEAYRISPKLYKGRICKVVLRDWPYSTQLRNLRCTELNTLIKVTGVCIKRGYVLPKLRVMYLKCNSCDTTLSEVPIYFADGKKPVLPRRCPHCQSATFSVDRIKTAYTDYQKITLQESPCSVPAGRAPRQREVVVTGDLVDKVKPGEEVEVLGIYKTKYDIGLNIKYGFPILQTEIEANNIERKEDIQLSELTEDDIKDILKLSKDPNIRERIITSIAPAIWGHKDIKTSIAYALFGGVQKGGDKSFSKNNETNNFGVQNRDILNNFKGGHTIRGDINVLLLGDPGLGKSQVLQYVHKTNLRTVYTTGKGASAVGLTAGVRKDHTTNEWTLEGGALVLADEGICIIDEFDKMTDKDRVSIHEAMEQQSISISKAGIVTTLRARCAVIAAANPIYGRYDPSLTFKENVDLSDPILSRFDLITVLRDIPNVDEDFYLAEYVVTNHQLSHPKLENTQNYQKRIENLKNVIVSSSAYEPIPQDLLQKYIIYARTNCKPSLSDVPYAEISAKLSNFYSRVRQKASASGGYPLTLRHIESIIRIAEANAKMRLSHQIYSKDVDYAIATLLESYVSCQRFAVAKQLSKEFARYRALFRGGYEVLRELLRRTVQQMIQRQNLKNASAKDFQNDSESGTESEAEILNPNNVFLPLHIFMKTAMQNKFSEYQVVNWMKSKVFNEHYAVIKRDGVEGIISKKFKV
# B4: PfMCM3 (protein, UniProt Q8I3J5 1-962)
# chain: MESLSIEKNSTPFGRSEYRTFNSELNYTLMDSSLNHSSILDNSMKIEKDSRDKRLQKLNQNIVSEYESGRQSVVFTQQKYKQLLEGFLLFVQTNKYIHQKITELRTEAIDEYNRMQNKNIPNIIIHQRLICNINNFQTGNEQFELLAKCLIKEPYLALPAYQAAIKELWKSEDSKVDIDPPKIGICGWLGRHHVTPRGLQSSMINKLVAVEGVVNKCSTVQPKLVQSVYIGEAVHDMNADAKTSEKTVHLRPHYDITDFDKTAKDSGRPPASDPEGRIMHKHEIGLCKYKNHQKFVIQETPEDAPTGQMPRWVEVIVEDDLCDIVKCGDRVRVWGVYRANCGQANSTNSGLGRSFLIANNVLVKNKETYDSNLCISEADKKNFHAFAKKDNTIDILGYSFAPSICGQDIVKKAIVLMLAGGTERALPSHHIRGDIHIMLVGDPSCGKSQLLRYVMSIMPGTVSATGRGSSGVGLTAAIVTDQDTGERVVEGGAMVMGDRRVVCIDEFDKMQPTDRVAIHEVMEQQTVTVAKAGIHTTLNARCTVLAAANPLYGCWNDALDMGQQLQFEPSLLSRFDLIFLVRDSATEQDDERIAESVLRNVTEKAKPIMNESRNNQKNFVIQADSYDINPKAQHISIYNERDINQNNDSNNMQENEEYETPIFANRDEMIYYDKNGVEHEILTVPFFKKYLHYVKNIFYHEKQRTDGWKPYPEVSDEACEVITELYADLRERASKYSHNKLIQGVTPRTLEAIIRIASSHAKLKLNRYVTSVDVNYAKKLLMYTLFGEEIIDSNEEDEEEDEEEEEEEEEEDELEEDEEDDDDEEEKLKKKRRQRQKRASRKRSGEKKDLASNKKKKKKSEQPNENGNENYMIDDLPSNKSNDTLDIKEIERLIVENVTLNDPGDGLKDVELLDLIILGNKDKMPELSKLDINQLRQIINSLNDMDGAPIYYVKKDKIVYKC
# B5: PfMCM5 (protein, UniProt Q8I5T4 1-758)
# chain: MIGIQEGRAFFNPTRNPNNRPENNIRIEENLPSLNEVYNYFQDFLSRYSSNTLKEGNLKRTLFENVKNNNFTLDLKLDDIYKQQTVFENNEISATPRSERKMKKPENYSAILARALSERPLTYLPTIERVCYEVCETANILNDEDEHLNYIQINLLNTFIRPTPIRGLLAATQERFVVVPGIIVQASKPQHKMRKITLQCRYCDHKMSIDVPLWRDKPQLPPYCRYSSTMKSSMGLGNAMDSQLGCNGVLEPYVILPNECTFVDIQSLKMQELPEAVPTGDMPRHLQLNVTRYLCEKMIPGDRVYVHGVLTSYNPNPRPTRADGTNFSYLHVLGFQKYDDMSGNDLNFDVEERNELTLLAAEHNIHEKIFKSIAPELYGMDEVKKACACLLFGGTRKRIGEETKIRGDINMLMLGDPSVAKSQILKFVNRCAPVSVYTSGKGSSAAGLTAAVMRDSQGVFSLEGGAMVLADGGVVCIDEFDKMRDDDVVAIHEAMEQQTISISKAGITTMLNTRCSVIAAANPSFGSYDDSQDTTYQHDFKTTILSRFDIIFLLRNKQDVEKDTLLCNHIVALHASKHKSQEGEIPLSKLTRYIQYAKREIAPLLSKEARDSLRNFYVQTRAEYRGDRRSVTKKIPITLRQLESLIRLAESFAKMELSQFATDKHVQMSIDLFSASTAETAKQCLIFETMSPLEQKAVKQAEDAILGRLGKGQRASRVNLFRELQLRGFDRSALSKALAILIKKGELQERGDRSVRRT
# Tests used:
# [1] = molecular target: T1, PfRBX1-HA (P. falciparum) (UniProt O77367); test: affinity purification with mass spectrometry; anti-HA agarose immunoprecipitation of PfRBX1-HA from schizont lysate (0.5X RIPA buffer, 1 h at room temperature), LC-MS/MS (DIA); parental DiCre strain as control
# T1 sequence: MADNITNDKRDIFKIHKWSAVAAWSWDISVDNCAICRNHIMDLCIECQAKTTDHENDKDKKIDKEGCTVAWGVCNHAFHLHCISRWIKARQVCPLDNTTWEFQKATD
# [2] = molecular target: T2, PfMCM4-Flag (P. falciparum) (UniProt Q8IEE5); test: affinity purification with mass spectrometry; anti-Flag agarose immunoprecipitation of PfMCM4-Flag from schizont lysate (0.5X RIPA buffer), LC-MS/MS; DiCre strain as control; also from DiCre-PfSKP1-HA and DiCre-PfRBX1-HA backgrounds pre-treated with DMSO or rapamycin
# T2 sequence: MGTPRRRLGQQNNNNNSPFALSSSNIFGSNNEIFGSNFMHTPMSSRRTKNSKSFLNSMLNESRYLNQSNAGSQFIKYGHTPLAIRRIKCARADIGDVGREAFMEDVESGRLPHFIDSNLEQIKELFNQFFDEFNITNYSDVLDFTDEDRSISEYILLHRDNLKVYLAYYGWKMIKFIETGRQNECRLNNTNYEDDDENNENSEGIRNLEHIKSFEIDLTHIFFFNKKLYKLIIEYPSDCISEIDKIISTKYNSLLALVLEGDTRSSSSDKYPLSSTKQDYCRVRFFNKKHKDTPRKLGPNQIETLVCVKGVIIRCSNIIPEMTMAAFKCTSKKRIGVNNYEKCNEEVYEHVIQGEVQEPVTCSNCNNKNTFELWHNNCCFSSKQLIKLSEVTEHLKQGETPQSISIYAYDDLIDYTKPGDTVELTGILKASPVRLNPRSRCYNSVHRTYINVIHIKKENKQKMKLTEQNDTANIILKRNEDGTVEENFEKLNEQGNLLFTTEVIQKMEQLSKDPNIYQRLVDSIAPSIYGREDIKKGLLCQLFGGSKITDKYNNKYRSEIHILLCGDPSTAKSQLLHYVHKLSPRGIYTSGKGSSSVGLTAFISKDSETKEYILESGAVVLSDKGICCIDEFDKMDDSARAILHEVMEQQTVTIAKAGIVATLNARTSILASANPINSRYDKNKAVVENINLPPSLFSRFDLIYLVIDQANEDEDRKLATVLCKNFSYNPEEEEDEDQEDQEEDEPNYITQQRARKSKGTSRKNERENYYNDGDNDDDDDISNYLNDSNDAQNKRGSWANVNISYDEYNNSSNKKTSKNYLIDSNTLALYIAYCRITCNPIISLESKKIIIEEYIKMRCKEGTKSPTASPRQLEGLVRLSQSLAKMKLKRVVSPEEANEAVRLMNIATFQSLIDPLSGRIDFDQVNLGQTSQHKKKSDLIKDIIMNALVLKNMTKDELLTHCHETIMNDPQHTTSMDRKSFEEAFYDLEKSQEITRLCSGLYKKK
Molecule,binding [1],binding [2]
PfNEDD8,binds,
WD-repeat protein PF3D7_1410300 (from UniProt Q8ILZ2 1-4405),binds,
PfCPSFA (P. falciparum Cleavage and Polyadenylation Specific Factor Subunit A) (from UniProt O77380 1-2870),binds,
B1,binds,
B2,binds,
B3,,binds
B4,,binds
B5,,binds
